Measurements published in patent US20170129926A1 (ABCLON, published 2017).
Read-outs that look alike come from different tables or passages of the source.

Amino acid sequences for entries named in this document (tags omitted). Residues count along the entry.
UniProt P05231, 30-212 limits assumed: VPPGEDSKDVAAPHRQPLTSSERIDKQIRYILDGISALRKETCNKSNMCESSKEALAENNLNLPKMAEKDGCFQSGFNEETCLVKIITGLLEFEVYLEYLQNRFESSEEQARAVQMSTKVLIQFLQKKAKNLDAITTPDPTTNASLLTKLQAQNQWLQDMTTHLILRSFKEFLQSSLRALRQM

Columns and labels:
human IL-6 [1] = molecular target: T1, human IL-6 (human, UniProt P05231 30-212); assay: cell-based or functional assay
human IL-6 [2] = molecular target: T1, human IL-6; assay: competition ELISA: blocking of preformed hIL-6/hIL-6Rα binding to hgp130
human IL-6 [3] = molecular target: T1, human IL-6; assay: cell-based or functional assay; remark: listed apart in the source
human IL-6 [4] = molecular target: T1, human IL-6; assay: competition ELISA: blocking of pre-mixed hIL-6/hIL-6Rα binding to coated hgp130-Fc
Method: In this experiment, half area 96-well ELISA plates were coated with Fc-fused hgp130 (hgp130-Fc) at a concentration of 4 μg/ml. Plates were incubated overnight at 4° C. and then washed twice in tap water. Next, the plates were blocked for 1 h in PBSC. Plates were incubated for 1.5 h at RT and then washed 4 times with 200 μl 0.05% Tween/PBS.
Plates were incubated for 1.5 h and then washed 4 times. A biotinylated anti-IL-6Rα antibody (R&D Systems) was added and the plates were incubated for another 1.5 h followed by washing. A 1:8000 dilution of streptavidin-HRP (Thermo Scientific) was added and the plates were incubated for 1 h.

human IL-6 [5] = molecular target: T1, human IL-6; assay: SPR (ProteOn), Z variant immobilized, hIL-6 analyte, 1:1 model
Method: The immobilization was performed using amine coupling chemistry according to the manufacturer's recommendations and PBST 0.05% was used as running buffer. PBST 0.05% was also used as running buffer in the kinetic experiment using a flow rate was 60 μl/min. […] After dissociation, the surfaces were regenerated with HCl supplemented with 0.05% Tween 20. Kinetic constants were calculated from the sensorgrams using a 1:1 model in Bio-Rad manager Software (Bio-Rad).

human IL-6 [6] = molecular target: T1, human IL-6; assay: ELISA, captured Z-ABD, biotin-hIL-6 titrated
human IL-6 [7] = molecular target: T1, human IL-6; assay: ELISA, captured Z-ABD, biotin-hIL-6 titrated; remark: listed apart in the source

Binder	IC50, IL-6 dependent growth of TF-1 cells (human IL-6 [1]) [nM]	IC50 (human IL-6 [2]) [nM]	IC50, IL-6 dependent growth of TF-1 cells (human IL-6 [3]) [nM]	IC50 (human IL-6 [4]) [nM]	further results
His6-Z14700 (designed binder) MGSSHHHHHHLQVDAKYAKEERHAWFEIHKLPNLTVDQMAAFITKLFDDPSQSSELLSEAKKLNDSQAPKVD	0.1	< 1.6	–	–	–
His6-Z06777 (designed binder) MGSSHHHHHHLQVDAKYAKEERKAWFEIHLLPNLTTQQRSAFISKLFDDPSQSSELLSEAKKLNDSQAPKVD	–	–	72	46	–
His6-Z06779 (designed binder) MGSSHHHHHHLQVDAKYAKEERSAWFEIHTLPNLTVQQIAAFIWKLYDDPSQSSELLSEAKKLNDSQAPKVD	–	–	30	36	–
His6-Z06789 (designed binder) MGSSHHHHHHLQVDAKYAKEERQAWWEIHSLPNLTVDQMAAFIVKLMDDPSQSSELLSEAKKLNDSQAPKVD	–	–	8.6	6.2	–
His6-Z06791 (designed binder) MGSSHHHHHHLQVDAKYAKEQAKAWWEIHVLPNLTVHQVAAFITKLFDDPSQSSELLSEAKKLNDSQAPKVD	–	–	5.2	23	–
His6-Z06792 (designed binder) MGSSHHHHHHLQVDAKYAKEERDAWHEIQILPNLTITQMAAFISKLFDDPSQSSELLSEAKKLNDSQAPKVD	–	–	53	17	–
His6-Z06799 (designed binder) MGSSHHHHHHLQVDAKYAKEEQRAWTEIHVLPNLTVQQMAAFITKLFDDPSQSSELLSEAKKLNDSQAPKVD	–	–	3.9	3.7	–
His6-Z06802 (designed binder) MGSSHHHHHHLQVDAKYAKETQHAWWEIHKLPNLTVSQMAAFITKLFDDPSQSSELLSEAKKLNDSQAPKVD	–	–	43	27	–
His6-Z06805 (designed binder) MGSSHHHHHHLQVDAKYAKEDRTAWWEIHKLPNLTAEQMAAFITKLFDDPSQSSELLSEAKKLNDSQAPKVD	–	–	77	42	–
His6-Z06809 (designed binder) MGSSHHHHHHLQVDAKYAKEERDAWREIHALPNLTVDQLVAFITKLFDDPSQSSELLSEAKKLNDSQAPKVD	–	–	20	3.3	–
His6-Z06829 (designed binder) MGSSHHHHHHLQVDAKYAKEEQRAWTEIHVLPNLTVSQMSAFISKLFDDPSQSSELLSEAKKLNDSQAPKVD	–	–	28	11	–
His6-Z06834 (designed binder) MGSSHHHHHHLQVDAKYAKEQHQAWNEIHLLPNLTVNQMAAFIVKLFDDPSQSSELLSEAKKLNDSQAPKVD	–	–	61	53	–
His6-Z11632 (designed binder) MGSSHHHHHHLQVDAKYAKEEREAWFEIHTLPNLTVSQMAAFISKLFDDPSQSSELLSEAKKLNDSQAPKVD	0.12	< 1.6	–	–	–
His6-Z14630 (designed binder) MGSSHHHHHHLQVDAKYAKEEKFAWWEIHKLPNLTVDQVAAFITKLFDDPSQSSELLSEAKKLNDSQAPKVD	0.087	< 1.6	–	–	–
His6-Z14712 (designed binder) MGSSHHHHHHLQVDAKYAKEEYLAWNEIHKLPNLTVDQMAAFITKLFDDPSQSSELLSEAKKLNDSQAPKVD	0.22	< 1.6	–	–	–
His6-Z14861 (designed binder) MGSSHHHHHHLQVDAKYAKEERKAWIEIHNLPNLTIDQMAAFITKLFDDPSQSSELLSEAKKLNDSQAPKVD	0.19	< 1.6	–	–	Kd (human IL-6 [5]): 0.17 nM; koff (human IL-6 [5]): 6.3e-05 s⁻¹; kon (human IL-6 [5]): 360000 M⁻¹ s⁻¹

Binder	IC50, IL-6 dependent growth of TF-1 cells (human IL-6 [1]) [nM]	IC50 (human IL-6 [2]) [nM]	IC50, IL-6 dependent growth of TF-1 cells (human IL-6 [3]) [nM]	IC50 (human IL-6 [4]) [nM]	further results
His6-Z14862 (designed binder) MGSSHHHHHHLQVDAKYAKEEAAAWREIHLLPNLTIDQMAAFITKLFDDPSQSSELLSEAKKLNDSQAPKVD	0.43	< 1.6	–	–	–
His6-Z14976 (designed binder, also called Z014976) MGSSHHHHHHLQVDAKYAKEERKAWYEIHLLPNLTVEQMAAFITKLFDDPSQSSELLSEAKKLNDSQAPKVD	0.042	< 1.6	–	–	Kd (human IL-6 [5]): 0.088 nM; koff (human IL-6 [5]): 2.7e-05 s⁻¹; kon (human IL-6 [5]): 310000 M⁻¹ s⁻¹
His6-Z14984 (designed binder) MGSSHHHHHHLQVDAKYAKEEKQAWREIHLLPNLTIDQMAAFITKLFDDPSQSSELLSEAKKLNDSQAPKVD	0.27	< 1.6	–	–	Kd (human IL-6 [5]): 0.25 nM; koff (human IL-6 [5]): 7.4e-05 s⁻¹; kon (human IL-6 [5]): 300000 M⁻¹ s⁻¹
His6-Z15015 (designed binder) MGSSHHHHHHLQVDAKYAKEERDAWWEIHALPNLTVEQMAAFITKLFDDPSQSSELLSEAKKLNDSQAPKVD	0.027	< 1.6	–	–	Kd (human IL-6 [5]): 0.17 nM; koff (human IL-6 [5]): 7.2e-05 s⁻¹; kon (human IL-6 [5]): 430000 M⁻¹ s⁻¹
His6-Z15036 (designed binder) MGSSHHHHHHLQVDAKYAKEEYEAWFEIHALPNLTVEQMAAFITKLFDDPSQSSELLSEAKKLNDSQAPKVD	0.18	< 1.6	–	–	–
His6-Z15110 (designed binder) MGSSHHHHHHLQVDAKYAKEERRAWTEIHSLPNLTIDQMAAFITKLFDDPSQSSELLSEAKKLNDSQAPKVD	0.93	< 1.6	–	–	–
His6-Z15122 (designed binder) MGSSHHHHHHLQVDAKYAKEERHAWYEIHLLPNLTIDQMAAFISKLFDDPSQSSELLSEAKKLNDSQAPKVD	0.085	< 1.6	–	–	Kd (human IL-6 [5]): 0.12 nM; koff (human IL-6 [5]): 3.9e-05 s⁻¹; kon (human IL-6 [5]): 310000 M⁻¹ s⁻¹
His6-Z15126 (designed binder) MGSSHHHHHHLQVDAKYAKEERNAWYEIHLLPNLTVEQMAAFITKLFDDPSQSSELLSEAKKLNDSQAPKVD	–	< 1.6	–	–	–
His6-Z15142 (designed binder) MGSSHHHHHHLQVDAKYAKEERMAWYEIHSLPNLTVDQMAAFITKLFDDPSQSSELLSEAKKLNDSQAPKVD	0.51	< 1.6	–	–	–
Z06789-ABD (designed binder) MGSSLQVDAKYAKEERQAWWEIHSLPNLTVDQMAAFIVKLMDDPSQSSELLSEAKKLNDSQAPKVDGSLAEAKEAANAELDSYGVSDFYKRLIDKAKTVEGVEALKDAILAALP	–	–	~100	–	–
Z06799-ABD (designed binder) MGSSLQVDAKYAKEEQRAWTEIHVLPNLTVQQMAAFITKLFDDPSQSSELLSEAKKLNDSQAPKVDGSLAEAKEAANAELDSYGVSDFYKRLIDKAKTVEGVEALKDAILAALP	–	–	2.4	–	–
Z06809-ABD (designed binder) MGSSLQVDAKYAKEERDAWREIHALPNLTVDQLVAFITKLFDDPSQSSELLSEAKKLNDSQAPKVDGSLAEAKEAANAELDSYGVSDFYKRLIDKAKTVEGVEALKDAILAALP	–	–	10	–	–
Z06829-ABD (designed binder) MGSSLQVDAKYAKEEQRAWTEIHVLPNLTVSQMSAFISKLFDDPSQSSELLSEAKKLNDSQAPKVDGSLAEAKEAANAELDSYGVSDFYKRLIDKAKTVEGVEALKDAILAALP	–	–	15	–	–
Z06814 (designed binder, domain: GA3; periplasmic ABD fusion) AQHDEALEVDAKYAKEEQRAWREIHLLPNLTIEQMAAFIWKLLDDPSQSSELLSEAKKLNDSQAPKVDYVLAEAKVLANRELDKYGVSDYYKNLINNAKTVEGVKALIDEILAALPYVPG	–	–	–	–	EC50 (human IL-6 [6]): 0.29 nM; EC50 (human IL-6 [7]): 0.32 nM
Z11632 (designed binder, domain: GA3; periplasmic ABD fusion) AQHDEALEVDAKYAKEEREAWFEIHTLPNLTVSQMAAFISKLFDDPSQSSELLSEAKKLNDSQAPKVDYVLAEAKVLANRELDKYGVSDYYKNLINNAKTVEGVKALIDEILAALPYVPG	–	–	–	–	EC50 (human IL-6 [6]): 0.19 nM; EC50 (human IL-6 [7]): 0.25 nM
